{"source": "patent US20140303322A1", "about": "“ANTIMICROBIAL AND BACTERIOSTATIC-MODIFIED POLYMERS FOR CELLULOSE FIBRES” (priority 2012, published 2014)", "origin": "cited, not measured here", "settings": "free compound, background statement; cited from earlier work", "note": "Some entries share one result that the patent states for a list of compounds."}
{"smiles": "CCCCOC(=O)c1ccc(O)cc1", "note": "[Butylparaben, butylparaben]", "values": [{"measurement": "water solubility", "result": "10 to 20", "unit": "mg/L"}]}
